Data: the supplement of paper PMC8728848
The other results are listed elsewhere or left out.

What was measured:
Assay in all cases: glycan array binding signal (z-score within array); higher = stronger binding
Settings in all cases: glycan notation: IUPAC condensed, linker removed
[1] = target: Neu5Ac(a2-3)Gal(b1-4)GlcNAc(b1-6)GalNAc
In short: (§1)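 Arrays were curated from the Consortium for Functional Glycomics database, 3228 in total, and kept only where the protein sequence was available. Binding is expressed as a within-array Z-score. This score was averaged across arrays of the same protein sequence at different concentrations or buffers and across linkers, and negative values can be read as non-binding.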

[2] = target: Neu5Ac(a2-3)Gal(b1-4)GlcNAc(b1-6)[Gal(b1-3)]GalNAc
In short: as §1

[3] = target: Neu5Ac(a2-3)Gal(b1-4)GlcNAc(b1-6)[Neu5Ac(a2-3)Gal(b1-3)]GalNAc
In short: as §1

[4] = target: Neu5Ac(a2-3)Gal(b1-4)GlcNAc6S
In short: as §1

[5] = target: Neu5Ac(a2-3)Gal(b1-4)[Fuc(a1-3)]GlcNAc
In short: as §1

[6] = target: Neu5Ac(a2-3)Gal(b1-4)[Fuc(a1-3)]GlcNAc(b1-2)Man
In short: as §1

[7] = target: Neu5Ac(a2-3)Gal(b1-4)[Fuc(a1-3)]GlcNAc(b1-3)Gal
In short: as §1

[8] = target: Neu5Ac(a2-3)Gal(b1-4)[Fuc(a1-3)]GlcNAc(b1-3)Gal(b1-4)GlcNAc
In short: as §1

[9] = target: Neu5Ac(a2-3)Gal(b1-4)[Fuc(a1-3)]GlcNAc(b1-3)Gal(b1-4)[Fuc(a1-3)]GlcNAc(b1-3)Gal(b1-4)[Fuc(a1-3)]GlcNAc
In short: as §1

[10] = target: Neu5Ac(a2-3)Gal(b1-4)[Fuc(a1-3)]GlcNAc(b1-3)GalNAc
In short: as §1

[11] = target: Neu5Ac(a2-3)Gal(b1-4)[Fuc(a1-3)]GlcNAc(b1-6)[Gal(b1-3)]GalNAc
In short: as §1

[12] = target: Neu5Ac(a2-3)Gal(b1-4)[Fuc(a1-3)]GlcNAc(b1-6)[Neu5Ac(a2-3)Gal(b1-3)]GalNAc
In short: as §1

[13] = target: Neu5Ac(a2-3)Gal(b1-4)[Fuc(a1-3)]GlcNAc6S
In short: as §1

[14] = target: Neu5Ac(a2-3)Gal6S(b1-4)GlcNAc
In short: as §1

[15] = target: Neu5Ac(a2-3)Gal6S(b1-4)[Fuc(a1-3)]GlcNAc
In short: as §1

Neu5Ac(a2-3)GalNAc = target: Neu5Ac(a2-3)GalNAc
In short: as §1

[16] = target: Neu5Ac(a2-3)GalNAc(b1-4)GlcNAc
In short: as §1

[17] = target: Neu5Ac(a2-3)[GalNAc(b1-4)]Gal(b1-4)Glc
In short: as §1

[18] = target: Neu5Ac(a2-3)[GalNAc(b1-4)]Gal(b1-4)GlcNAc
In short: as §1

[19] = target: Neu5Ac(a2-3)[GalNAc(b1-4)]Gal(b1-4)GlcNAc(b1-3)GalNAc
In short: as §1

[20] = target: Neu5Ac(a2-3)[Neu5Ac(a2-6)]GalNAc
In short: as §1

Neu5Ac(a2-6)Gal = target: Neu5Ac(a2-6)Gal
In short: as §1

[21] = target: Neu5Ac(a2-6)Gal(b1-3)GlcNAc(b1-3)[Gal(b1-4)GlcNAc(b1-6)]Gal(b1-4)Glc
In short: as §1

Neu5Ac(a2-6)Gal(b1-4)Glc = target: Neu5Ac(a2-6)Gal(b1-4)Glc
In short: as §1

[22] = target: Neu5Ac(a2-6)Gal(b1-4)GlcNAc
In short: as §1

[23] = target: Neu5Ac(a2-6)Gal(b1-4)GlcNAc(b1-2)Man
In short: as §1

[24] = target: Neu5Ac(a2-6)Gal(b1-4)GlcNAc(b1-2)Man(a1-3)Man(b1-4)GlcNAc(b1-4)GlcNAc
In short: as §1

[25] = target: Neu5Ac(a2-6)Gal(b1-4)GlcNAc(b1-2)Man(a1-3)[Gal(b1-4)GlcNAc(b1-2)Man(a1-6)]Man(b1-4)GlcNAc(b1-4)GlcNAc
In short: as §1

[26] = target: Neu5Ac(a2-6)Gal(b1-4)GlcNAc(b1-2)Man(a1-3)[GlcNAc(b1-2)Man(a1-6)]Man(b1-4)GlcNAc(b1-4)GlcNAc
In short: as §1

[27] = target: Neu5Ac(a2-6)Gal(b1-4)GlcNAc(b1-2)Man(a1-3)[GlcNAc(b1-4)][Neu5Ac(a2-6)Gal(b1-4)GlcNAc(b1-2)Man(a1-6)]Man(b1-4)GlcNAc(b1-4)GlcNAc
In short: as §1

B1: Protein L(A-C2) (Finegoldia magna), Q51912 (protein)
chain: ADEPIDLEKLEEKRDKENVGNLPKFDNEVKDGSENPMAKYPDFDDEASTRFETENNEFEEKKVVSDNFFDQSEHPFVENKEETPETPETDSEEEVTIKANLIFANGSTQTAEFKGTFEKATSEAYAYADTLKKDNGEYTVDVADKGYTLNIKFAGKEKTPEEPKEEVTIKANLIYADGKTQTAEFKGTFEEATAEAYRYADALKKDNGEYTVDVADKGYTLNIKFAGKEKTPEEPKEEVTIKANLIYADGKTQTAEFKGTFEEATAEAYRYADLLAKENGKYTVDVADKGYTLNIKFAGKEKTPEEPKEEVTIKANLIYADGKTQTAEFKGTFAEATAEAYRYADLLAKENGKYTADLEDGGYTINIRFAGKKVDEKPEEKEQVTIKENIYFEDGTVQTATFKGTFAEATAEAYRYADLLSKEHGKYTADLEDGGYTINIRFAGKEEPEETPEKPEVQDGYASYEEAEAAAKEALKNDDVNKSYTIRQGADGRYYYVLSPVEAEEEKPEAQNGYATYEEAEAAAKKALENDPINKSYSIRQGADGRYYYVLSPVEAE
glycan array binding signal (z-score) [1]: -0.612 | glycan array binding signal (z-score) [2]: -0.007 | glycan array binding signal (z-score) [3]: -0.416 | glycan array binding signal (z-score) [4]: -0.331 | glycan array binding signal (z-score) [5]: -0.888 | glycan array binding signal (z-score) [6]: 0.146 | glycan array binding signal (z-score) [7]: -0.95 | glycan array binding signal (z-score) [8]: 0.23 | glycan array binding signal (z-score) [9]: -0.249 | glycan array binding signal (z-score) [10]: 1.95 | glycan array binding signal (z-score) [11]: 2.06 | glycan array binding signal (z-score) [12]: 1.52 | glycan array binding signal (z-score) [13]: -0.333 | glycan array binding signal (z-score) [14]: -0.81 | glycan array binding signal (z-score) [15]: -1.05 | glycan array binding signal (z-score) (Neu5Ac(a2-3)GalNAc): -1.03 | glycan array binding signal (z-score) [16]: -1.05 | glycan array binding signal (z-score) [17]: -0.886 | glycan array binding signal (z-score) [18]: -0.31 | glycan array binding signal (z-score) [19]: 2.78 | glycan array binding signal (z-score) [20]: -0.321 | glycan array binding signal (z-score) (Neu5Ac(a2-6)Gal): -0.739 | glycan array binding signal (z-score) [21]: -0.793 | glycan array binding signal (z-score) (Neu5Ac(a2-6)Gal(b1-4)Glc): -0.604 | glycan array binding signal (z-score) [22]: 0.237 | glycan array binding signal (z-score) [23]: 0.253 | glycan array binding signal (z-score) [24]: -0.807 | glycan array binding signal (z-score) [25]: -0.313 | glycan array binding signal (z-score) [26]: -0.924 | glycan array binding signal (z-score) [27]: 0.228
